{"source": "PubChem BioAssay AID1259254 (NCATS, 2017)", "test": "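Finding genes that stop cells copying their DNA twice in one cycle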 (primary screen)", "cell system": "human HCT116 colorectal cancer cells", "reagent": "single siRNA against human genes", "timing": "3 days", "read-out": "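Imaged Hoechst DNA stain sorts each cell into a cycle phase by DNA amount; per plate, G2 fraction set to 0% for non-targeting and 100% for GMNN siRNA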", "reading the numbers": "G2 robust z-score and G2 cells, % of GMNN control: higher = more G2 cells, more excess DNA replication", "active means": "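An siRNA counts as active if its G2 robust z-score lies at least 5 MADs above the screen median; here such calls match roughly 38% of GMNN control or more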", "note": "This is an unselected part of about 59,000 reagents. Over the whole deposit, about 1,550 (2.6%) are marked active. 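G2 share is only a proxy for re-replication; each gene was hit by three separate siRNAs, and active genes were retested.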 The numbers tell different reagents against one gene apart. Further read-outs or replicates are left out here. Not given: the amount of reagent."}
{"gene": "ZNF431 (GeneID 170959)", "reagent no.": 1, "G2 robust z-score": -0.493, "G2 cells, % of GMNN control": -0.5, "Outcome": "inactive"}
{"gene": "ZNF431 (GeneID 170959)", "reagent no.": 2, "G2 robust z-score": 1.42, "G2 cells, % of GMNN control": 13, "Outcome": "inactive"}
{"gene": "ZNF431 (GeneID 170959)", "reagent no.": 3, "G2 robust z-score": -1.02, "G2 cells, % of GMNN control": -4.21, "Outcome": "inactive"}
{"gene": "ZNF703 (GeneID 80139)", "reagent no.": 1, "G2 robust z-score": -0.387, "G2 cells, % of GMNN control": 0.242, "Outcome": "inactive"}
{"gene": "ZNF703 (GeneID 80139)", "reagent no.": 2, "G2 robust z-score": -0.126, "G2 cells, % of GMNN control": 2.08, "Outcome": "inactive"}
{"gene": "ZNF703 (GeneID 80139)", "reagent no.": 3, "G2 robust z-score": -0.532, "G2 cells, % of GMNN control": -0.773, "Outcome": "inactive"}
{"gene": "TNNC2 (GeneID 7125)", "reagent no.": 1, "G2 robust z-score": 0.187, "G2 cells, % of GMNN control": 4.28, "Outcome": "inactive"}
{"gene": "TNNC2 (GeneID 7125)", "reagent no.": 2, "G2 robust z-score": 0.772, "G2 cells, % of GMNN control": 8.4, "Outcome": "inactive"}
{"gene": "TNNC2 (GeneID 7125)", "reagent no.": 3, "G2 robust z-score": -0.237, "G2 cells, % of GMNN control": 1.3, "Outcome": "inactive"}
{"gene": "PHB2 (GeneID 11331)", "reagent no.": 1, "G2 robust z-score": -0.463, "G2 cells, % of GMNN control": -0.289, "Outcome": "inactive"}
{"gene": "PHB2 (GeneID 11331)", "reagent no.": 2, "G2 robust z-score": -0.989, "G2 cells, % of GMNN control": -3.99, "Outcome": "inactive"}
{"gene": "PHB2 (GeneID 11331)", "reagent no.": 3, "G2 robust z-score": 1.95, "G2 cells, % of GMNN control": 16.7, "Outcome": "inactive"}
{"gene": "PDE6G (GeneID 5148)", "reagent no.": 1, "G2 robust z-score": -0.772, "G2 cells, % of GMNN control": -2.46, "Outcome": "inactive"}
{"gene": "PDE6G (GeneID 5148)", "reagent no.": 2, "G2 robust z-score": -0.573, "G2 cells, % of GMNN control": -1.06, "Outcome": "inactive"}
{"gene": "PDE6G (GeneID 5148)", "reagent no.": 3, "G2 robust z-score": 1.72, "G2 cells, % of GMNN control": 15.1, "Outcome": "inactive"}
{"gene": "SLCO2B1 (GeneID 11309)", "reagent no.": 1, "G2 robust z-score": 2.66, "G2 cells, % of GMNN control": 21.7, "Outcome": "inactive"}
{"gene": "SLCO2B1 (GeneID 11309)", "reagent no.": 2, "G2 robust z-score": 2.61, "G2 cells, % of GMNN control": 21.3, "Outcome": "inactive"}
{"gene": "SLCO2B1 (GeneID 11309)", "reagent no.": 3, "G2 robust z-score": 0.154, "G2 cells, % of GMNN control": 4.05, "Outcome": "inactive"}
{"gene": "MXD4 (GeneID 10608)", "reagent no.": 1, "G2 robust z-score": 0.611, "G2 cells, % of GMNN control": 7.27, "Outcome": "inactive"}
{"gene": "MXD4 (GeneID 10608)", "reagent no.": 2, "G2 robust z-score": 3.7, "G2 cells, % of GMNN control": 29, "Outcome": "inactive"}
{"gene": "MXD4 (GeneID 10608)", "reagent no.": 3, "G2 robust z-score": -0.652, "G2 cells, % of GMNN control": -1.62, "Outcome": "inactive"}
{"gene": "SH3RF3 (GeneID 344558)", "reagent no.": 1, "G2 robust z-score": -0.315, "G2 cells, % of GMNN control": 0.75, "Outcome": "inactive"}
{"gene": "SH3RF3 (GeneID 344558)", "reagent no.": 2, "G2 robust z-score": 0.265, "G2 cells, % of GMNN control": 4.83, "Outcome": "inactive"}
{"gene": "SH3RF3 (GeneID 344558)", "reagent no.": 3, "G2 robust z-score": -0.905, "G2 cells, % of GMNN control": -3.4, "Outcome": "inactive"}

Limited to “G2 robust z-score”, for 3 of the entries above:
PDE6G (GeneID 5148) #1: -0.772
PDE6G (GeneID 5148) #2: -0.573
PDE6G (GeneID 5148) #3: 1.72
